Reference: patent US4956363A, “Treatment of cognitive and behavioral disorders associated with aging and with dementia syndromes” (U C B S.A., priority 1988, dated 1990)

Key:
[1] = test system: effects of scopolamine on the EEG, band from 6.4 to 9.6 Hz; experiment: Inhibition of the effects of scopolamine on the electroencephalogram (EEG); type: in vivo, rats (male albino Sprague-Dawley SPF); settings: scopolamine 0.5 mg/kg i.p. in rats; in words
Experimental: Male albino Sprague-Dawley SPF rats (160 to 200 g) are used in this test.
When the animals are 3 months old, 5 cortical electrodes are implanted permanently, aseptically and under a general anesthesia: one inert electrode, one left and one right frontal electrode, and one left and one right occipital electrode (P. ETEVENON, loc. cit.).
The test is carried out when the animals are about 15 months old. In the meantime, the animals are kept in individual cages. They are given water and food ad libitum and are subjected to a regular daily cycle comprising a period of darkness between 6 o'clock in the evening and 6 o'clock in the morning. […] The products are administered immediately before the EEG is recorded.
The rats are divided into groups of 8 animals and 16 samples of the EEG spectra are recorded over 5 seconds (two EEG spectra per animal). The spectra obtained are then analyzed by computer (rapid Fourier transform), which enables the average of the 16 measurements performed to be determined for each group and the overall intensity of the EEG spectrum and the distribution of this intensity (in %) in the various frequency bands to be deduced for each animal. […]

[2] = test system: amnesia induced by scopolamine; experiment: Multiple-trial passive avoidance: mnemic retention (amnesia induced by scopolamine); settings: scopolamine alone
Experimental: To this end, the method of multiple-trial passive avoidance has been used. This method is well-known for evaluating the effects which a product exerts on the memory and learning (A. FINE et al., Proc. Natl. Acad. Sci. U.S.A., 82, (1985), 5227-5230).
The test is carried out on male Sprague-Dawley rats (160-200 g). which are kept in standard cages throughout the experiment.
The apparatus used is a transparent square cage with 35 cm sides and 25 cm high, fitted with a grid floor which can be electrified. An insulating rubber mat (10×17 cm) is placed on the floor in one of the corners of the cage.
Each animal is subjected to four tests at times 0, 4, 24 and 28 hours. In the first test (time 0), the animal is placed on the rubber mat and the time which it takes to decide to leave this position to explore the cage is recorded. After 20 seconds of exploration, the rat receives an electric shock (3 seconds duration) in the paws, causing a flight reaction. The rat is immediately removed from the apparatus and replaced in its original cage. In the course of the three subsequent tests (times: 4, 24 and 28 hours), the animal is replaced on the rubber mat and the time taken to leave this position is recorded. […]
The differences observed are analyzed statistically by the Mann-Whitney method.

CN1[C@@H]2C[C@@H](OC(=O)[C@H](CO)c3ccccc3)C[C@H]1[C@@H]1O[C@@H]12 [scopolamine]
effect on the EEG spectrum [1]: an increase in the intensity in the band at 8 Hz, a reduction in the intensity of the bands from 20.8 to 40 Hz and an increase in the overall intensity of the EEG spectrum
period of remaining on the mat, group 3, summary [2]: < 180 s
